The text below walks through data of the supplement of paper PMC12819154, “High-throughput peptide-centric local stability assay extends protein–ligand identification to membrane proteins, tissues and bacteria” (Nature Structural & Molecular Biology, 2025).

Sequences of proteins named here, by UniProt entry; tags and fusion partners are left off. A change or cut given only in a name is not applied to a line headed by its entry.
UniProt Q96RT6: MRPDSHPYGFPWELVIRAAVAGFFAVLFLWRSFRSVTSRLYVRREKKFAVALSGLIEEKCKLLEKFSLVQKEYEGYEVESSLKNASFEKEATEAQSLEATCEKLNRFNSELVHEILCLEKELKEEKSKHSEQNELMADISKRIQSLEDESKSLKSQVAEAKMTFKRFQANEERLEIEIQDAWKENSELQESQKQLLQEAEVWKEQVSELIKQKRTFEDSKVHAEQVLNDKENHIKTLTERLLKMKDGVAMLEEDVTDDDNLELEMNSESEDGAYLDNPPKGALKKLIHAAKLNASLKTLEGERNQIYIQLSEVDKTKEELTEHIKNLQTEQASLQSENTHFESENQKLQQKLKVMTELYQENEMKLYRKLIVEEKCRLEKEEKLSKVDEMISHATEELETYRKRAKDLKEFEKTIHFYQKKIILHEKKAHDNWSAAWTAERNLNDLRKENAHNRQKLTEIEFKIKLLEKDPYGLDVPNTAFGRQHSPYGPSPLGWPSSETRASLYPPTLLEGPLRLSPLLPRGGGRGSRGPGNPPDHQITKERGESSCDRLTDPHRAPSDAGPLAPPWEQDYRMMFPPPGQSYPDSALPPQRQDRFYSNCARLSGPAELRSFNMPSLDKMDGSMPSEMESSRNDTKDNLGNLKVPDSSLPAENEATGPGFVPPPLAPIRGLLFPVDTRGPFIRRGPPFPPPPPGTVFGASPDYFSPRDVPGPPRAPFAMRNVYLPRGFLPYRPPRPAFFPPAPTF
UniProt Q96J92: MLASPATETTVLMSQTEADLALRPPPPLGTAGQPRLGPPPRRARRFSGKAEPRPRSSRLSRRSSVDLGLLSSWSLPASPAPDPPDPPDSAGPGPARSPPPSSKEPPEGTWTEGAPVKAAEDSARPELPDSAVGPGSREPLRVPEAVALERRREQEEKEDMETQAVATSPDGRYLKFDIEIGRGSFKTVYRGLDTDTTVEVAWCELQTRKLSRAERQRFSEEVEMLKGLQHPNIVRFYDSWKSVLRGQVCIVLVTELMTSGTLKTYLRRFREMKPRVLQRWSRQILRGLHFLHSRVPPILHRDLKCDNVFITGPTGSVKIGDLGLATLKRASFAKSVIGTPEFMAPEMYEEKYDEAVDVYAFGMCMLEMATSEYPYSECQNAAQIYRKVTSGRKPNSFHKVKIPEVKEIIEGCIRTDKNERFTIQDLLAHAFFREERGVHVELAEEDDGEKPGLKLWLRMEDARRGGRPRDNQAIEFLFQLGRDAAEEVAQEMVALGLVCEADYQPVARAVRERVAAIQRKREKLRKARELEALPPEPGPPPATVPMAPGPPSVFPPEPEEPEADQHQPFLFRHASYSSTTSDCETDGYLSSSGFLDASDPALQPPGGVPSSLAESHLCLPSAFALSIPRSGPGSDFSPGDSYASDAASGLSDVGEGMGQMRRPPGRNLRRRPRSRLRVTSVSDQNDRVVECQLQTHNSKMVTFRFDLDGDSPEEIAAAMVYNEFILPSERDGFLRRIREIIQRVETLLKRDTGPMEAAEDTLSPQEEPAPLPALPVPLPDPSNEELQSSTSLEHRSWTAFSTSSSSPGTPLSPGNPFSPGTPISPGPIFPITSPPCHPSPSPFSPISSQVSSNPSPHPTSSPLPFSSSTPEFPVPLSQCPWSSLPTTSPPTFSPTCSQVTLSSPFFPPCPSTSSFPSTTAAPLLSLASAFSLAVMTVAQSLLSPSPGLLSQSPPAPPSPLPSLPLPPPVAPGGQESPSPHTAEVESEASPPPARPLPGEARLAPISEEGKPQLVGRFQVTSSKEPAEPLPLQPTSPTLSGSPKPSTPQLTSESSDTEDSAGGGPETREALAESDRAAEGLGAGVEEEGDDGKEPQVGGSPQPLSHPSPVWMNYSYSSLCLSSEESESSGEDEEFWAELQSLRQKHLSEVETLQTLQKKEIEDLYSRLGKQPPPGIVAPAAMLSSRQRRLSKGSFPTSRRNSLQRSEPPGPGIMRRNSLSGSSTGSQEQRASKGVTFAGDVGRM
UniProt Q96PU4: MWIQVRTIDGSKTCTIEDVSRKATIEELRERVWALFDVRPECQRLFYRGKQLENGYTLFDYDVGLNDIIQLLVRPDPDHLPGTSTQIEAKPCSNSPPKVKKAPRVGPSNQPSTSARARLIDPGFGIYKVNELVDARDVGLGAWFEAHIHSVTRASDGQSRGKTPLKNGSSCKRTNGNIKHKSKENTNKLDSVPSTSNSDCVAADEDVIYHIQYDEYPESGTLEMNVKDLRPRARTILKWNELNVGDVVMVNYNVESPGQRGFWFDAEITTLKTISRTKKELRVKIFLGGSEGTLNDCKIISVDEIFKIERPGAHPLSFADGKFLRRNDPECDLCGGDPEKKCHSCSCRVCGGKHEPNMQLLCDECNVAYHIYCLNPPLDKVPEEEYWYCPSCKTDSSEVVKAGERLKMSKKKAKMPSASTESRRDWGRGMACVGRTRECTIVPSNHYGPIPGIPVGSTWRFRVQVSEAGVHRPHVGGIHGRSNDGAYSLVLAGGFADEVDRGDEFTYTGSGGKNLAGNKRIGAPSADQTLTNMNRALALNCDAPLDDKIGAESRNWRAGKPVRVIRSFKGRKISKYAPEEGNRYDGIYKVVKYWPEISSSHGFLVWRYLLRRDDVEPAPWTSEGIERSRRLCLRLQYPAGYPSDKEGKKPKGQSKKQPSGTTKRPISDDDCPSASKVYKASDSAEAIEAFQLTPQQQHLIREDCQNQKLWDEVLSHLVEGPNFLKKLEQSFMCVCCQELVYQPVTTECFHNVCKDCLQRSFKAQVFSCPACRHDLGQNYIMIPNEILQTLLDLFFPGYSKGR
UniProt Q96HP0: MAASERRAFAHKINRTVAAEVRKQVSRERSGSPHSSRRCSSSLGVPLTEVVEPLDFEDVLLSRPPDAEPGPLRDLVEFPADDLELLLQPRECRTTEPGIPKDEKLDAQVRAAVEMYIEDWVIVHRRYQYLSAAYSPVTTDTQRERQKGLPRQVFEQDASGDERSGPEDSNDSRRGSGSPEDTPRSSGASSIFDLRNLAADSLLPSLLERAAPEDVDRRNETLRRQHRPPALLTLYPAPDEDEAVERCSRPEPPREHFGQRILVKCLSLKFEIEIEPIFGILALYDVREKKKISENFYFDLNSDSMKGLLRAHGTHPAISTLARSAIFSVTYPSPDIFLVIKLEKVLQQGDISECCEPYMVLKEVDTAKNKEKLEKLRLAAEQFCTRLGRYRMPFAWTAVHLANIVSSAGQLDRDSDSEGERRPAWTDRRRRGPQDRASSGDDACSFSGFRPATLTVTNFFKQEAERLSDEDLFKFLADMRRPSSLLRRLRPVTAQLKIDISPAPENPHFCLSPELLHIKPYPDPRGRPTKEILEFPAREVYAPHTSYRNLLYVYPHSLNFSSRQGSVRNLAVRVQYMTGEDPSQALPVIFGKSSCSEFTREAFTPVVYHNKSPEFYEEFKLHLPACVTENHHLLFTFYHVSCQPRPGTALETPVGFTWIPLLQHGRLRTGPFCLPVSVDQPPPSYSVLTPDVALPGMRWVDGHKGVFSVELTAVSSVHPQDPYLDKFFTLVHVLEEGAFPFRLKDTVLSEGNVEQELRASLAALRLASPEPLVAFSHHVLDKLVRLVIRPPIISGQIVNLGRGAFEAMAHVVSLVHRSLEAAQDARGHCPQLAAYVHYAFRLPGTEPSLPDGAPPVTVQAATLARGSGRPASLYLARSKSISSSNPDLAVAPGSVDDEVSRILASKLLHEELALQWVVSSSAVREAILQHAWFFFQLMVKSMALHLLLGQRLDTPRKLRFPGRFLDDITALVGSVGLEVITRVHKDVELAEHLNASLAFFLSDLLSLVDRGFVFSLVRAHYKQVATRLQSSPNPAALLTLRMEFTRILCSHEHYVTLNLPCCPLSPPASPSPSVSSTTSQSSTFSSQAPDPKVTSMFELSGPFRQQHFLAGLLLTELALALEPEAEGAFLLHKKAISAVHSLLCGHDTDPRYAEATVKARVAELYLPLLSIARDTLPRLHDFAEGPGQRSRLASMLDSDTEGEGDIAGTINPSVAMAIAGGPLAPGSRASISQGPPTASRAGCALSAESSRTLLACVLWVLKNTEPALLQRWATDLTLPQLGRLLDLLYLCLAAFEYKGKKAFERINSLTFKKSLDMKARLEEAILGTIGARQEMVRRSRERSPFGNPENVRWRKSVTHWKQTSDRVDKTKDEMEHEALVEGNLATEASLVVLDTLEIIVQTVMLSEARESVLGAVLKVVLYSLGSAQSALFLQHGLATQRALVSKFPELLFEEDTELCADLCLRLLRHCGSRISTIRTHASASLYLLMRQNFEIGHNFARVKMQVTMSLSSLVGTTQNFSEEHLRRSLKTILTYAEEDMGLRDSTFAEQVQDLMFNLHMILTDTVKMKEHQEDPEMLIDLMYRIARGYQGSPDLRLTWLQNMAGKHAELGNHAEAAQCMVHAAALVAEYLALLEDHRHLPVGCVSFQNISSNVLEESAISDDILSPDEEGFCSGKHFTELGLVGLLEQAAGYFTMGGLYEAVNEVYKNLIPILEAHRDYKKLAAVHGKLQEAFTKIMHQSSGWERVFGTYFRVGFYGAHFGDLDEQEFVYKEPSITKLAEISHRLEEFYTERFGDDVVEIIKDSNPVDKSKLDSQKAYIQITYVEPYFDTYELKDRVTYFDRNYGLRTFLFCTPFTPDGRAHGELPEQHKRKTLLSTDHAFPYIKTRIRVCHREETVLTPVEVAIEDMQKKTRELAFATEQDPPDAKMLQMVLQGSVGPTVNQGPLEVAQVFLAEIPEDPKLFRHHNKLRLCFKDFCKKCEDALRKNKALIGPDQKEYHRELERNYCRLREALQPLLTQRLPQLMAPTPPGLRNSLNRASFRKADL
UniProt Q96GI7: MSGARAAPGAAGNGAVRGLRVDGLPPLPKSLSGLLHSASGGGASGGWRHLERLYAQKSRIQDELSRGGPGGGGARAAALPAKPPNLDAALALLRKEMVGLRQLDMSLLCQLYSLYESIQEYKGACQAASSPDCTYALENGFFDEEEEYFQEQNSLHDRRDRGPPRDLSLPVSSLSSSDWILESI
UniProt Q96JD6: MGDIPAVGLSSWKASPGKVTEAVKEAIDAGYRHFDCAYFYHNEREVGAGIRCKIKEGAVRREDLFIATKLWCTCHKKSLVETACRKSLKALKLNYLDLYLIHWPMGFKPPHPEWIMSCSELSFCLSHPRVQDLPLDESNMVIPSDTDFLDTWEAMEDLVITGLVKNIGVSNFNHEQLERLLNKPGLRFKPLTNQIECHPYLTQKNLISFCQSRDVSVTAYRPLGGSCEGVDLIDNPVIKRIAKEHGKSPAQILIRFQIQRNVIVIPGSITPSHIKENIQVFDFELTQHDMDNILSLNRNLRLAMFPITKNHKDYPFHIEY
UniProt Q96RT8, whole entry: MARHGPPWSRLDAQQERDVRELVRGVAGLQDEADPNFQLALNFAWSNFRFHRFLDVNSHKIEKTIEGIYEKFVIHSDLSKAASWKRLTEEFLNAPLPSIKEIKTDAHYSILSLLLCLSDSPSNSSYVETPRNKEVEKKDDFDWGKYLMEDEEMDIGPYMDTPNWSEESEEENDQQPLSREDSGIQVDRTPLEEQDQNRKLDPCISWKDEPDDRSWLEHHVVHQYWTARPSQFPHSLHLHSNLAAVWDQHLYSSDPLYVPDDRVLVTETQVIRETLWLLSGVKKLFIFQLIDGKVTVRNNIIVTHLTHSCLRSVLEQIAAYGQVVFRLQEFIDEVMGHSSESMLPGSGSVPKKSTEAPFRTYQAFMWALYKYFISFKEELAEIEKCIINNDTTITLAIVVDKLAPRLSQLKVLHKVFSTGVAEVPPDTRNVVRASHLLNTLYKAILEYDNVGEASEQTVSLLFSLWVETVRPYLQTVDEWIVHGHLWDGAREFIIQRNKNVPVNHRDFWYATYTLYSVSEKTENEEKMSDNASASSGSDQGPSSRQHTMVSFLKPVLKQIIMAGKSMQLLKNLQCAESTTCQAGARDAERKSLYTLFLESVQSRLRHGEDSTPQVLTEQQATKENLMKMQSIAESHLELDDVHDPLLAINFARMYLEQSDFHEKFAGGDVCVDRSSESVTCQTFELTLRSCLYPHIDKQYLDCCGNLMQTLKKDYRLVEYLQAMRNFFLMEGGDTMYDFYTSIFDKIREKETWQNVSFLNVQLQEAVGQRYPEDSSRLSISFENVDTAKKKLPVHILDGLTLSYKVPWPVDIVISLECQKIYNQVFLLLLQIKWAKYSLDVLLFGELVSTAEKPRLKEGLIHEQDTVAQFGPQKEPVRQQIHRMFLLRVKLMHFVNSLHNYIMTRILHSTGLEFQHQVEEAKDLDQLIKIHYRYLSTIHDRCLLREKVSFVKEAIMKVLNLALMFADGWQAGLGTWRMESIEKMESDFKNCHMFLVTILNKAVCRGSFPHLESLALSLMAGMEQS

The other results are listed elsewhere or left out. Most entries show no effect beyond the scatter of the controls.

Compound in the test: Cc1nc(Nc2ncc(C(=O)Nc3c(C)cccc3Cl)s2)cc(N2CCN(CCO)CC2)n1 [dasatinib]
Description: log2 fold change of tryptic peptide abundance, ligand vs vehicle (limited proteolysis) (log2 ratio); higher = more trypsin-susceptible (destabilized). Conditions: ligand concentration: 5 uM; sample: K562 cleared lysate.
On to “UniProt Q96RT6 (peptide sequence: EATEAQSLEATCEKLNR, peptide start residue: 728)”, for which the log2 fold change stood at 0.232.

Regarding “WNK4 (peptide sequence: YLKFDIEIGR, peptide start residue: 173) (UniProt Q96J92)”, the log2 fold change was -0.737.

“UHRF2 (peptide sequence: MPSASTESR, peptide start residue: 415) (UniProt Q96PU4)”: the log2 fold change is -0.109.

Regarding “DOCK6 (peptide sequence: SPFGNPENVR, peptide start residue: 1343) (UniProt Q96HP0)”, the log2 fold change came out at 0.2.

Consider “TOE1 (peptide sequence: TANFVAVDTELSGLGDRK, peptide start residue: 57) (UniProt Q96GM8)”, for which the log2 fold change was -0.169.

With “FAM89A (peptide sequence: VDGLPPLPK, peptide start residue: 21) (UniProt Q96GI7)”, the log2 fold change was -0.282.

“UniProt Q96JD6 (peptide sequence: NVIVIPGSITPSHIK, peptide start residue: 261)”: the log2 fold change is -0.454.

For the target “TUBGCP5 (peptide sequence: KLDPCISWKDEPDDR, peptide start residue: 199) (UniProt Q96RT8)”, the log2 fold change was -0.258.

“UniProt Q96MP5 (peptide sequence: VASPGGDTTGK, peptide start residue: 107)”: the log2 fold change was -0.0279.

As to “VPS13A (peptide sequence: ALVGGAVGGLAGAASK, peptide start residue: 2908) (UniProt Q96RL7)”, the log2 fold change came to 0.113.
